Results from one PubChem assay

From PubChem BioAssay record AID1080 (Emory University Molecular Libraries Screening Center, 2008).

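A counter-screen in EP4-overexpressing cells measuring cyclic AMP with a time-resolved FRET kit under weak PGE2 stimulation. Compounds were tested at 20 µM final. A low (about EC15) PGE2 dose was present. Percent cAMP induction as a fraction of the 1 µM PGE2 response, averaged over three replicates; a higher value means more cAMP.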

Values are in %. Common to all entries: measured here: EP4 receptor counter-screen. Part of the compounds only, not a random draw; the main read-out is not listed here.

* Cc1noc(C)c1CSc1ncnc2sc3c(c12)CCC3 [percent of 1 uM PGE2 response; plus low (about EC15) PGE2 agonist] : cAMP induction -5.1%
* Oc1ccc(/C=N/N2CCN(C3c4ccccc4-c4ccccc43)CC2)c(O)c1 [percent of 1 uM PGE2 response; plus low (about EC15) PGE2 agonist] : cAMP induction 4.483%
* C[C@H](CN(C)C)C(=O)c1ccccc1C(=O)O [percent of 1 uM PGE2 response; plus low (about EC15) PGE2 agonist] : cAMP induction 9.453%
* CC(C)c1ccc(OCC(=O)NC(=S)Nc2ccc3c4c(cccc24)CC3)cc1 [percent of 1 uM PGE2 response; plus low (about EC15) PGE2 agonist] : cAMP induction 72.46%
* CCOC(=O)c1c(C)nc2ccccc2c1-c1ccccc1 [percent of 1 uM PGE2 response; plus low (about EC15) PGE2 agonist] : cAMP induction -1.203%
* Cc1nc(SCCC(=O)O)c2ccccc2n1 [percent of 1 uM PGE2 response; plus low (about EC15) PGE2 agonist] : cAMP induction 73.77%
* COc1cc(-c2nc(-c3cccc(C(F)(F)F)c3)no2)cc(OC)c1OC [percent of 1 uM PGE2 response; plus low (about EC15) PGE2 agonist] : cAMP induction -7.077%
* Cc1oc(-c2ccccc2)cc1C(=O)Nc1cccc(/C=C\C(=O)O)c1 [percent of 1 uM PGE2 response; plus low (about EC15) PGE2 agonist] : cAMP induction -0.1567%
* O=C(COc1ccccc1)Nc1ccccc1N1CCN(c2ccccc2)CC1 [percent of 1 uM PGE2 response; plus low (about EC15) PGE2 agonist] : cAMP induction 10.44%
* O=C(O)c1ccc(-c2ccccc2C(F)(F)F)o1 [percent of 1 uM PGE2 response; plus low (about EC15) PGE2 agonist] : cAMP induction -5.263%
* CCCCCOC(=O)c1[nH]c2c(c1C)C(=O)C(C(=O)OC)C(C)C2 (configuration not stated) [percent of 1 uM PGE2 response; plus low (about EC15) PGE2 agonist] : cAMP induction -5.157%
* C[C@H](N)[C@H](O)c1ccc(O)c(O)c1 : cAMP induction 5.297%
* CSc1nc(Oc2ccc(F)cc2)c2ccccc2n1 [percent of 1 uM PGE2 response; plus low (about EC15) PGE2 agonist] : cAMP induction 7.863%
* O=C(Nc1cc(S(=O)(=O)Nc2ccc(Cl)cc2)ccc1N1CCCCC1)c1ccc(F)cc1Cl [percent of 1 uM PGE2 response; plus low (about EC15) PGE2 agonist] : cAMP induction -6.037%
* Cc1ccccc1NC1=C(C(=O)c2ccccc2)N(C)S(=O)(=O)c2ccccc21 [percent of 1 uM PGE2 response; plus low (about EC15) PGE2 agonist] : cAMP induction 0.04667%
* Cc1ccc(C)n1-n1cnc2scc(-c3cccs3)c2c1=O [percent of 1 uM PGE2 response; plus low (about EC15) PGE2 agonist] : cAMP induction 4.027%
* Cc1ccc(Cl)cc1NC(=S)N(Cc1ccco1)C(C)c1cccs1 (configuration not stated) [percent of 1 uM PGE2 response; plus low (about EC15) PGE2 agonist] : cAMP induction -13.76%
* O=C(CSc1nc2ccccc2o1)Nc1ccccc1N1CCCCCC1 [percent of 1 uM PGE2 response; plus low (about EC15) PGE2 agonist] : cAMP induction -11.89%
* CCOC(=O)c1ccccc1NC(=O)C1COc2ccccc2O1 (configuration not stated) [percent of 1 uM PGE2 response; plus low (about EC15) PGE2 agonist] : cAMP induction -7.657%

2 of the entries, repeated:

compound,setting,cAMP induction (%)
Cc1ccc(C)n1-n1cnc2scc(-c3cccs3)c2c1=O,percent of 1 uM PGE2 response; plus low (about EC15) PGE2 agonist,4.027
Cc1oc(-c2ccccc2)cc1C(=O)Nc1cccc(/C=C\C(=O)O)c1,percent of 1 uM PGE2 response; plus low (about EC15) PGE2 agonist,-0.1567